# Test results: PubChem BioAssay AID1671190 (National Center for Advancing Translational Sciences (NCATS), 2021)
# By UniProt entry, the sequences of proteins in these tests, tags left out. Where a name states a change or a piece, a line headed by the entry shows the natural chain unless it says otherwise.
# UniProt P18054: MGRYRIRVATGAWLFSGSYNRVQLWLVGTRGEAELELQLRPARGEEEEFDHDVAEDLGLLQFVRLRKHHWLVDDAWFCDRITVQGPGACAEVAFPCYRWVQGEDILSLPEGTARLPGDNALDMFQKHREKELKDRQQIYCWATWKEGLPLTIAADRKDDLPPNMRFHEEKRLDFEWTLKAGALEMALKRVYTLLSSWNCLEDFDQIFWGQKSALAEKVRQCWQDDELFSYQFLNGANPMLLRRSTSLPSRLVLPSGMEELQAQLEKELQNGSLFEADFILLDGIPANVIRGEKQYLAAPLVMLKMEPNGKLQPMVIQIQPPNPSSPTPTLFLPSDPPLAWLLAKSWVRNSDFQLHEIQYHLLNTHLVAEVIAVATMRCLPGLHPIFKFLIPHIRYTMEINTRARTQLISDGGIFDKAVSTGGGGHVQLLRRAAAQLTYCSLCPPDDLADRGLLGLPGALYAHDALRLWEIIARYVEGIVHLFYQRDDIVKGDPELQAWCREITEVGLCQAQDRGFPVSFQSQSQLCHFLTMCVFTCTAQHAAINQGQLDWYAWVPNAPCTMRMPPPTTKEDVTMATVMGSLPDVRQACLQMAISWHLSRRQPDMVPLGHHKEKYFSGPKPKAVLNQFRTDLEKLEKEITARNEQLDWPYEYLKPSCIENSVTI
# Screen size: about 580,000 compounds; about 6,100 (1.1%) were called active. This list was built around the results that the source calls inconclusive (neither active nor inactive); the mix of calls is not that of the screen. Calls follow the shape of the dose curve; as a rule, active = well fitted inhibition curve with a large enough effect; inconclusive = small, poorly fitted or top-dose-only effect, or another doubt; inactive = no such curve, though single readings can be large or run the other way. A potency beside an inconclusive call is a rough fit, not a confirmed value.
# Molecular target: Polyunsaturated fatty acid lipoxygenase ALOX12 (Homo sapiens) (UniProt P18054)
# Experiment: Primary qHTS assay for inhibitors of human arachidonate 12S-lipoxygenase (ALOX12): Round 2
# Conditions: purified 12hLO, xylenol orange hydroperoxide absorbance; activity change, negative = inhibition: at 108 µM (top of the series) unless noted
# How it was run: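 Purified human 12hLO at 150 nM in 25 mM Hepes, 0.01% Triton X-100, pH 7.0, preincubated 15 min at room temperature with compound. Reaction started with 40 uM arachidonic acid, 30 min at room temperature. Hydroperoxide measured by Fe-xylenol orange, 573/405 nm absorbance ratio.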
# % is scaled to controls: 0 for no effect and ±100 for the full control effect; potency is read from the fitted curve at half-maximal effect.
Structure (SMILES),Potency,"activity change, negative = inhibition"
O=C(COC(=O)c1cccc(S(=O)(=O)N2CCOCC2)c1)c1ccccc1,inactive,–
COCCCn1c(O)c(/C=C2\N=C(C#N)C(=Nc3ccc(C)cc3)O2)sc1=S,"inconclusive: 79.4 µM [inhibitor, partial curve, poor fit]",–
Nc1nc(N)c(N=Nc2ccc(C(=O)O)cc2)c(N)n1,"inconclusive: 35.5 µM [inhibitor, single point]",–
CN(C)c1ccc(-c2ccc3ncnc(-n4ccnc4)c3c2)cc1,inactive,–
CCCNC(=O)Cc1ccc(NC(=O)N2CCSc3ncccc32)cc1,inactive,–
O=C(O)c1ccc2nc(-c3ccco3)c(-c3ccco3)nc2c1,"inconclusive: 22.4 µM [inhibitor, partial curve, poor fit]",–
COc1ccc(CNC(=O)C2CC(c3ccc(C(F)(F)F)cc3)=NO2)cc1 (centres undefined),"inconclusive: 112 µM [inhibitor, single point]",–
Oc1c(Br)cc(/C=N/n2c(-c3ccccc3)n[nH]c2=S)cc1Br,active: 22.4 µM,–
NC(=O)c1ccc(CN(Cc2cccs2)C2CC2)cc1,"inconclusive: 100 µM [inhibitor, single point]",–
CCCCNc1c(-c2ccc(-c3cccc(Cl)c3)cc2)nc2ccccn12,"inconclusive: 50.1 µM [inhibitor, partial curve, poor fit]",–
CC(=O)c1ccc(Sc2nnnn2-c2ccccc2)c([N+](=O)[O-])c1,inactive,–
O=C1NCc2ccccc2CC12CCCN2Cc1ccc(OC(F)(F)F)cc1 (centres undefined),–,inactive: 6.62% [at 6.33 µM]
Cc1ccc(S(=O)(=O)N2CCN(C(=O)COC(=O)c3ccc(Cl)c(S(N)(=O)=O)c3)CC2)c(C)c1,"inconclusive: 20 µM [inhibitor, partial curve, poor fit]",–
Cc1occc1-c1nnc(SCC(=O)Nc2nccs2)n1CCc1ccccc1,"inconclusive: 79.4 µM [inhibitor, partial curve, poor fit]",–
COc1ccc(Cn2c(CO)cnc2SCC(=O)NCc2ccco2)cc1,"inconclusive: 39.8 µM [inhibitor, partial curve, poor fit]",–
Cc1nc(NC(=O)COC(=O)c2cccs2)c(Cl)cc1Cl,"inconclusive: 44.7 µM [inhibitor, partial curve, poor fit]",–
Cc1cc(C)cc(N(CC(=O)NCc2ccco2)S(=O)(=O)c2c(C)noc2C)c1,inactive,–
Cc1ccc(C(=O)CC(C(=O)O)n2cnc([N+](=O)[O-])n2)cc1 (centres undefined),"inconclusive: 50.1 µM [inhibitor, partial curve, poor fit]",–
COc1ccc(NC(=O)c2c(NC(=O)c3cccc(C)c3)sc3c2CCCC3)cc1,"inconclusive: 100 µM [inhibitor, partial curve, poor fit]",–
COc1ccccc1-c1cc(C(=O)Nc2c(C)nn(Cc3ccc(C)cc3)c2C)no1,"inconclusive: 39.8 µM [inhibitor, partial curve, poor fit]",–
Cn1c(O)c(C2=Nc3ccccc3SC(c3cccc(O)c3)C2)c(=O)[nH]c1=O (centres undefined),"inconclusive: 70.8 µM [inhibitor, partial curve, poor fit]",–
CCCCCCNC(=O)O[C@H]1C[C@H](C(=O)OC)[C@H](C(=O)OC)C2CN(S(=O)(=O)c3ccc(C)cc3)C[C@@]21O (some centres undefined),"inconclusive: 50.1 µM [inhibitor, partial curve, poor fit]",–

Structure (SMILES),Potency,"activity change, negative = inhibition"
Cc1ccc([N+](=O)[O-])cc1S(=O)(=O)N1CCn2cccc2C1c1ccc(F)c(F)c1 (centres undefined),"inconclusive: 50.1 µM [inhibitor, partial curve, poor fit]",–
CCCCCCCCCS(=O)(=O)N/N=C/c1ccc([N+](=O)[O-])cc1,"inconclusive: 14.1 µM [inhibitor, partial curve]",–
COc1ccc([C@H]2CC(=O)C=C(c3ccc(SC)cc3)C2)cc1OC,inactive,–
CC/C=C/C(=O)N1CC2(CC(c3cccc(NC(=O)CC(c4ccccc4)c4ccccc4)c3)=NO2)C[C@@H]1C(N)=O (some centres undefined),"inconclusive: 5.62 µM [inhibitor, full curve, poor fit]",–
Cc1ccc(S(=O)(=O)NC(CCC(N)=O)C(=O)NCc2ccc3c(c2)OCO3)c(C)c1 (centres undefined),"inconclusive: 100 µM [inhibitor, partial curve, poor fit]",–
O=C(NCc1cccc(Cl)c1)C1Cc2c(-c3ccc(Cl)cc3)ccnc2O1 (centres undefined),"inconclusive: 56.2 µM [inhibitor, partial curve, poor fit]",–
CCN(C(=O)CSc1ccc2c(c1)OCCO2)C1CCS(=O)(=O)C1 (centres undefined),"inconclusive: 39.8 µM [inhibitor, single point]",–
NC(=O)CSc1nnc(-c2ccccc2)c(-c2ccccc2)n1,inactive,–
CCc1ccc(CN2CCSCC2)cc1,"inconclusive: 0.631 µM [inhibitor, full curve, poor fit]",–
CC(C)Cn1c(-c2cc(Br)ccc2F)nc2c1c(=O)[nH]c(=O)n2CC(C)C,"inconclusive: 89.1 µM [inhibitor, partial curve, poor fit]",–
COc1ccc(C2=Nn3c(nnc3-c3ccccc3Cl)SC2)cc1OC1CCOC1 (centres undefined),inactive,–
CC(C)N(CC#CCC(O)(c1ccccc1)C1CCCC1)CCO (centres undefined),"inconclusive: 44.7 µM [inhibitor, partial curve, poor fit]",–
Cn1c(-c2sc3cc(C(F)(F)F)cnc3c2-c2ccccn2)n[nH]c1=S,"inconclusive: 100 µM [inhibitor, partial curve, poor fit]",–
Cc1cccc(CN2CCN(C(=O)c3cccc4ccccc34)CC2)c1,"inconclusive: 22.4 µM [inhibitor, partial curve, poor fit]",–
COc1ccc(Cl)cc1S(=O)(=O)N1CCC(C(=O)NCCc2ccccc2)CC1,"inconclusive: 100 µM [inhibitor, single point]",–
O=C1c2oc3ccccc3c(=O)c2C(c2cccc(Br)c2)N1c1ccccn1 (centres undefined),inactive,–
Cn1cc(/C=C2\SC(=O)N(c3ccccc3)C2=O)c2ccccc21,inactive,–
C/C(=N\NC(=S)Nc1ccccc1)c1cccc(C(F)(F)F)c1,"inconclusive: 31.6 µM [inhibitor, partial curve, poor fit]",–
O=C(OC(C(=O)NCc1ccc2c(c1)OCO2)c1ccc(Cl)cc1)c1ccco1 (centres undefined),"inconclusive: 17.8 µM [inhibitor, partial curve, poor fit]",–
COC(=O)[C@@]12C[C@@H](CC(=O)NCCCCc3ccccc3)C(=O)N(Cc3cccc4ccccc34)C1=CCC(C)(C)C2,"inconclusive: 31.6 µM [inhibitor, partial curve, poor fit]",–
CC(C)Oc1ccc2c(=O)c(Oc3ccccc3)coc2c1,inactive,–
CCN1CC(Nc2ccc(-c3nc(CCCc4ccccc4)no3)cn2)CC1=O (centres undefined),inactive,–

Structure (SMILES),Potency,"activity change, negative = inhibition"
CS(=O)(=O)Nc1ccc(C2=NN(S(=O)(=O)c3ccccc3)C(c3ccccc3)C2)cc1 (centres undefined),"inconclusive: 15.8 µM [inhibitor, full curve]",–
CN1CCN(CCOCCOc2c(Cl)cc(Cl)cc2Cl)CC1,"inconclusive: 35.5 µM [inhibitor, partial curve, poor fit]",–
CCc1nc(N2CCN(C(=S)Nc3ccccc3)CC2)c(C#N)c2c1CSC(C)(C)C2,"inconclusive: 44.7 µM [inhibitor, partial curve, poor fit]",–
Cc1cc(C(=O)O)c(CSCc2cc(C(=O)O)oc2C)o1,"inconclusive: 8.91 µM [inhibitor, full curve, poor fit]",–
N#C/C(=C\c1ccc(C(=O)O)cc1)c1ccccn1,inactive,–
Cc1cc(C)c2nc(C(F)(F)F)nc(NCCCN3CCOCC3)c2c1,"inconclusive: 79.4 µM [inhibitor, single point]",–
CN(CC(=O)Nc1ccc(Cl)c(C(F)(F)F)c1)Cc1cc(Cl)cc2c1OCOC2,"inconclusive: 7.94 µM [inhibitor, full curve]",–
O=c1c2ccccc2nnn1Cc1ccccc1Cl,inactive,–
O=C(O)CNC(=O)c1ccccc1NC(=O)c1ccco1,inactive,–
C=C(C)CSc1nc2c(c(=O)[nH]c(=O)n2C)n1Cc1ccccc1,"inconclusive: 50.1 µM [inhibitor, partial curve, poor fit]",–
Cc1ccc(-c2nc3ccccn3c2NC(=O)c2ccco2)cc1,inactive,–
NC(=O)c1sc(=S)n(-c2ccc(Br)cc2)c1N,"inconclusive: 39.8 µM [inhibitor, partial curve, poor fit]",–
O=C(COC(=O)CC(c1ccccc1)c1ccccc1)Nc1cccc(F)c1,"inconclusive: 50.1 µM [inhibitor, full curve, poor fit]",–
Cn1c([C@H]2CCN(S(=O)(=O)Cc3ccccc3)C2)nc2ccccc21,"inconclusive: 39.8 µM [inhibitor, full curve]",–
COc1ccc(-c2nc3cnccn3c2NCCC(=O)N2CCCC(C)C2)cc1 (centres undefined),"inconclusive: 50.1 µM [inhibitor, partial curve]",–
O=[N+]([O-])c1ccc(O)c(/C=N/Nc2ccccc2[N+](=O)[O-])c1,"inconclusive: 89.1 µM [inhibitor, single point]",–
CC1CCN(C(=O)CCc2nc3sc4c(c3c(=O)[nH]2)CCCCC4)CC1,"inconclusive: 50.1 µM [inhibitor, single point]",–
S=C(NCCC(c1ccccc1)c1ccccc1)Nc1ccc(Cl)cc1Cl,"inconclusive: 141 µM [inhibitor, single point]",–
CC1=C(C(=O)OCc2ccccc2)C(/C=C/c2ccccc2)NC(=S)N1 (centres undefined),active: 17.8 µM,–
CCCC(N)c1ccc(C23CC4CC(CC(C4)C2)C3)cc1 (centres undefined),"inconclusive: 158 µM [inhibitor, partial curve, poor fit]",–

# Some values from above.
# Under Potency, NC(=O)c1sc(=S)n(-c2ccc(Br)cc2)c1N is entered as inconclusive: 39.8 µM [inhibitor, partial curve, poor fit]
# Under Potency, CS(=O)(=O)Nc1ccc(C2=NN(S(=O)(=O)c3ccccc3)C(c3ccccc3)C2)cc1 (centres undefined) is entered as inconclusive: 15.8 µM [inhibitor, full curve]
# Under Potency, COc1ccc(-c2nc3cnccn3c2NCCC(=O)N2CCCC(C)C2)cc1 (centres undefined) is entered as inconclusive: 50.1 µM [inhibitor, partial curve]
